Assay results as given in the supplement of paper PMC7840683.

Tested on: HepaRG
Assay: LDH release cytotoxicity, % of total lysis control; higher = more cytotoxic
Conditions: 48 h
How it was run: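 Single-lot HepaRG cells in collagen I-coated 96-well plates were treated for 48 h in serum-free induction medium containing 0.5% DMSO with test chemicals in eight-point half-log series up to 100 µM. For total lysis, wells received 0.1% Triton X. LDH in 50 µL spent medium was assayed by resorufin fluorescence with CytoTox-ONE. Percent cytotoxicity was normalized to the on-plate vehicle and total lysis controls, with duplicates averaged.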

CCCCCCCCc1ccc(O)cc1 [4-Octylphenol]
Conditions	LDH release cytotoxicity [%]
0.03162 µM	-2.08
0.1 µM	-0.779
0.3162278 µM	-2.32
1 µM	-2.45
3.16228 µM	-1.84
10 µM	-1.93
31.6228 µM	-1.5
100 µM	11.3
